PubChem BioAssay AID1508597 – Cure First – 2020
Purpose: 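Survival screen with siRNA in ovarian cancer cells derived from patients, with or without rucaparib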 (primary screen). Cell system: human ovarian carcinoma lines grown from tumours: OCI-P5x (papillary serous) and OCI-C5x (clear cell). Reagent: siRNA pool against human genes, 1.25 pmol siRNA per well. Duration: 72 h or 96 h, depending on the cell culture. Conditions: rucaparib 20 µM (about IC30) or vehicle, present until read-out. Measured: 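ATP luminescence measured at 72 or 96 h according to the culture, then normalised and expressed as percent viability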. Reading the numbers: viability, normalised: higher = more viable cells remaining. Rule for the call: 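a well counts as a hit if its normalised viability is under 80 percent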. Meaning of the calls: active = viability under 80%; inactive = viability 80% or more.
The whole screen tested about 2,100 reagents; this is a part drawn at random. 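Calls flag viability under 80% in either arm, not effects specific to rucaparib; the reference for percent is not stated.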 A reagent listed more than once was tested more than once; the source does not tell the runs apart. Reagent sequences are not shown. The record does not give: the 100% reference.

target gene,rucaparib or vehicle,cell line,technical replicate,"viability, normalised (%)",Call
PCM1 (pericentriolar material 1),Rucaparib,OCI-C5x (clear cell),1,38.6,active
PCM1 (pericentriolar material 1),Rucaparib,OCI-C5x (clear cell),2,34.3,active
PCM1 (pericentriolar material 1),Rucaparib,OCI-C5x (clear cell),3,39.5,active
PCM1 (pericentriolar material 1),Rucaparib,OCI-P5x (serous),1,43.6,active
PCM1 (pericentriolar material 1),Rucaparib,OCI-P5x (serous),2,38.8,active
PCM1 (pericentriolar material 1),Rucaparib,OCI-P5x (serous),3,39.3,active
PCM1 (pericentriolar material 1),Vehicle,OCI-C5x (clear cell),1,25,active
PCM1 (pericentriolar material 1),Vehicle,OCI-C5x (clear cell),2,20.8,active
PCM1 (pericentriolar material 1),Vehicle,OCI-C5x (clear cell),3,29,active
PCM1 (pericentriolar material 1),Vehicle,OCI-P5x (serous),1,39,active
PCM1 (pericentriolar material 1),Vehicle,OCI-P5x (serous),2,55.7,active
PCM1 (pericentriolar material 1),Vehicle,OCI-P5x (serous),3,83.4,inactive
RPS3A (ribosomal protein S3A),Rucaparib,OCI-C5x (clear cell),1,53.2,active
RPS3A (ribosomal protein S3A),Rucaparib,OCI-C5x (clear cell),2,39.9,active
RPS3A (ribosomal protein S3A),Rucaparib,OCI-C5x (clear cell),3,49.8,active
RPS3A (ribosomal protein S3A),Rucaparib,OCI-P5x (serous),1,65,active
RPS3A (ribosomal protein S3A),Rucaparib,OCI-P5x (serous),2,62.8,active
RPS3A (ribosomal protein S3A),Rucaparib,OCI-P5x (serous),3,62.6,active
RPS3A (ribosomal protein S3A),Vehicle,OCI-C5x (clear cell),1,22.5,active
RPS3A (ribosomal protein S3A),Vehicle,OCI-C5x (clear cell),2,25.3,active
RPS3A (ribosomal protein S3A),Vehicle,OCI-C5x (clear cell),3,29.2,active
RPS3A (ribosomal protein S3A),Vehicle,OCI-P5x (serous),1,51.4,active
RPS3A (ribosomal protein S3A),Vehicle,OCI-P5x (serous),2,51,active
RPS3A (ribosomal protein S3A),Vehicle,OCI-P5x (serous),3,49.8,active
STK24 (serine/threonine kinase 24),Rucaparib,OCI-C5x (clear cell),1,68.6,active
STK24 (serine/threonine kinase 24),Rucaparib,OCI-C5x (clear cell),2,51.2,active
STK24 (serine/threonine kinase 24),Rucaparib,OCI-C5x (clear cell),3,49.5,active
STK24 (serine/threonine kinase 24),Rucaparib,OCI-P5x (serous),1,88.8,inactive
STK24 (serine/threonine kinase 24),Rucaparib,OCI-P5x (serous),2,87.8,inactive
STK24 (serine/threonine kinase 24),Rucaparib,OCI-P5x (serous),3,66.8,active
STK24 (serine/threonine kinase 24),Vehicle,OCI-C5x (clear cell),1,55.2,active
STK24 (serine/threonine kinase 24),Vehicle,OCI-C5x (clear cell),2,70.1,active
STK24 (serine/threonine kinase 24),Vehicle,OCI-C5x (clear cell),3,50.2,active
STK24 (serine/threonine kinase 24),Vehicle,OCI-P5x (serous),1,80.2,inactive
STK24 (serine/threonine kinase 24),Vehicle,OCI-P5x (serous),2,98.6,inactive
STK24 (serine/threonine kinase 24),Vehicle,OCI-P5x (serous),3,81.5,inactive
"MCL1 (MCL1 apoptosis regulator, BCL2 family member)",Rucaparib,OCI-C5x (clear cell),1,35.7,active
"MCL1 (MCL1 apoptosis regulator, BCL2 family member)",Rucaparib,OCI-C5x (clear cell),2,36.4,active
"MCL1 (MCL1 apoptosis regulator, BCL2 family member)",Rucaparib,OCI-C5x (clear cell),3,38.1,active
"MCL1 (MCL1 apoptosis regulator, BCL2 family member)",Rucaparib,OCI-P5x (serous),1,42.3,active
"MCL1 (MCL1 apoptosis regulator, BCL2 family member)",Rucaparib,OCI-P5x (serous),2,48.5,active
"MCL1 (MCL1 apoptosis regulator, BCL2 family member)",Rucaparib,OCI-P5x (serous),3,47.2,active
"MCL1 (MCL1 apoptosis regulator, BCL2 family member)",Vehicle,OCI-C5x (clear cell),1,44.7,active
"MCL1 (MCL1 apoptosis regulator, BCL2 family member)",Vehicle,OCI-C5x (clear cell),2,44.3,active
"MCL1 (MCL1 apoptosis regulator, BCL2 family member)",Vehicle,OCI-C5x (clear cell),3,37.6,active
"MCL1 (MCL1 apoptosis regulator, BCL2 family member)",Vehicle,OCI-P5x (serous),1,48.3,active
"MCL1 (MCL1 apoptosis regulator, BCL2 family member)",Vehicle,OCI-P5x (serous),2,42,active
"MCL1 (MCL1 apoptosis regulator, BCL2 family member)",Vehicle,OCI-P5x (serous),3,43.7,active
SNRNP200 (small nuclear ribonucleoprotein U5 subunit 200),Rucaparib,OCI-C5x (clear cell),1,43.7,active
SNRNP200 (small nuclear ribonucleoprotein U5 subunit 200),Rucaparib,OCI-C5x (clear cell),1,34.4,active
SNRNP200 (small nuclear ribonucleoprotein U5 subunit 200),Rucaparib,OCI-C5x (clear cell),2,49.7,active
SNRNP200 (small nuclear ribonucleoprotein U5 subunit 200),Rucaparib,OCI-C5x (clear cell),2,41.3,active
SNRNP200 (small nuclear ribonucleoprotein U5 subunit 200),Rucaparib,OCI-C5x (clear cell),3,45.8,active
SNRNP200 (small nuclear ribonucleoprotein U5 subunit 200),Rucaparib,OCI-C5x (clear cell),3,34.4,active
SNRNP200 (small nuclear ribonucleoprotein U5 subunit 200),Rucaparib,OCI-P5x (serous),1,51.5,active
SNRNP200 (small nuclear ribonucleoprotein U5 subunit 200),Rucaparib,OCI-P5x (serous),1,57.1,active
SNRNP200 (small nuclear ribonucleoprotein U5 subunit 200),Rucaparib,OCI-P5x (serous),2,52.3,active
SNRNP200 (small nuclear ribonucleoprotein U5 subunit 200),Rucaparib,OCI-P5x (serous),2,51.5,active
SNRNP200 (small nuclear ribonucleoprotein U5 subunit 200),Rucaparib,OCI-P5x (serous),3,48.9,active
SNRNP200 (small nuclear ribonucleoprotein U5 subunit 200),Rucaparib,OCI-P5x (serous),3,55.3,active
SNRNP200 (small nuclear ribonucleoprotein U5 subunit 200),Vehicle,OCI-C5x (clear cell),1,37.6,active
SNRNP200 (small nuclear ribonucleoprotein U5 subunit 200),Vehicle,OCI-C5x (clear cell),1,26.9,active
SNRNP200 (small nuclear ribonucleoprotein U5 subunit 200),Vehicle,OCI-C5x (clear cell),2,27,active
SNRNP200 (small nuclear ribonucleoprotein U5 subunit 200),Vehicle,OCI-C5x (clear cell),2,31.2,active
SNRNP200 (small nuclear ribonucleoprotein U5 subunit 200),Vehicle,OCI-C5x (clear cell),3,29.8,active
SNRNP200 (small nuclear ribonucleoprotein U5 subunit 200),Vehicle,OCI-C5x (clear cell),3,28.7,active
SNRNP200 (small nuclear ribonucleoprotein U5 subunit 200),Vehicle,OCI-P5x (serous),1,28.3,active
SNRNP200 (small nuclear ribonucleoprotein U5 subunit 200),Vehicle,OCI-P5x (serous),1,32.3,active
SNRNP200 (small nuclear ribonucleoprotein U5 subunit 200),Vehicle,OCI-P5x (serous),2,31,active
SNRNP200 (small nuclear ribonucleoprotein U5 subunit 200),Vehicle,OCI-P5x (serous),2,35.4,active
SNRNP200 (small nuclear ribonucleoprotein U5 subunit 200),Vehicle,OCI-P5x (serous),3,36,active
SNRNP200 (small nuclear ribonucleoprotein U5 subunit 200),Vehicle,OCI-P5x (serous),3,32.8,active
